US20250333410A1, “COMPOUND FOR INHIBITING OR DEGRADING BCL6 AND USE THEREOF IN PHARMACEUTICS” (XIZANG HAISCO PHARMACEUTICAL CO., LTD., priority 2022, published 2025)

Protein sequences, listed by entry. Tags and fused reporters are not part of them.
UniProt Q12809, whole entry: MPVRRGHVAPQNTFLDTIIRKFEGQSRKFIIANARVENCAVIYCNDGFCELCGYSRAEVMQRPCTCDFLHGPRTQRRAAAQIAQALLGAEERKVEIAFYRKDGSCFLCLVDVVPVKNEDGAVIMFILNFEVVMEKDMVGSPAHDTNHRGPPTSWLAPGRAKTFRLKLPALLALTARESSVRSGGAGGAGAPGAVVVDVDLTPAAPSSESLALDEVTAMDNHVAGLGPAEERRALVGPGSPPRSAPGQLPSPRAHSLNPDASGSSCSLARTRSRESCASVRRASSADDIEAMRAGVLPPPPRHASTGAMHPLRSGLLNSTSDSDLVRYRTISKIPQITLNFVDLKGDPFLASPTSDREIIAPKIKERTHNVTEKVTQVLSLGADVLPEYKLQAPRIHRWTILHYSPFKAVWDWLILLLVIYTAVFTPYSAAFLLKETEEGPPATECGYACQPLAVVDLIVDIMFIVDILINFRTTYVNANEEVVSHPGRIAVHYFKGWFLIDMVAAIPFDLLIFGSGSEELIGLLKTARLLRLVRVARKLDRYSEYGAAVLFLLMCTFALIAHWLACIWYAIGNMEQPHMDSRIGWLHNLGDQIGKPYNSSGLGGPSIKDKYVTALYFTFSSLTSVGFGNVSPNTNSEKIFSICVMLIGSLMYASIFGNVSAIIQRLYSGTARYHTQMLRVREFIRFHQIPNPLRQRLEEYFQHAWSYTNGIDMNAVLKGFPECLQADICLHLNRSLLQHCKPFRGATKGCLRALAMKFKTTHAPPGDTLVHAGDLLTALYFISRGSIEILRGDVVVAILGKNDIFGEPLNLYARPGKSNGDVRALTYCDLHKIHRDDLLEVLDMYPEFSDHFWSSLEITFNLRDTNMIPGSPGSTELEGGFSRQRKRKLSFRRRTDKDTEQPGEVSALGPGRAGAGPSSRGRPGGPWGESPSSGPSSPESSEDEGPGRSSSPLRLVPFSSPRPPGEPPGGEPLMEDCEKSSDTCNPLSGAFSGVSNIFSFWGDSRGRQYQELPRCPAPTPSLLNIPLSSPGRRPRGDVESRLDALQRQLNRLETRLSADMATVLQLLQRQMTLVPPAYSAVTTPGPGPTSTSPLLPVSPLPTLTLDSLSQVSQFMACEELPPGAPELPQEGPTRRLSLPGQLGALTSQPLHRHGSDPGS

What was measured:
[1] = Pharmacokinetic test in mice; settings: mice plasma, i.g. 5 mg/kg
Bcl6 [2] = target: T1, Bcl6 (Homo sapiens (Human), UniProt P41182); test: Bcl-6 protein degradation experiment in OCI-LY1 cells; settings: read-out: Bcl6 DC50, 24 hours
Bcl6 [3] = target: T1, Bcl6; test: Bcl-6 protein degradation experiment in Farage cells; assay type: cell-based; settings: read-out: Bcl6 DC50, 24 hours
[4] = target: hERG potassium ion channel (Homo sapiens (Human), UniProt Q12809); test: Test for hERG potassium ion channel (manual patch-clamp, CHO cells); settings: read-out: IC50 of inhibitory effects on hERG potassium channel current; CHO cells stably expressing hERG, whole cell patch-clamp
[5] = Pharmacokinetic test in rats; settings: i.g. 5 mg/kg; for F: rats

Row | Compound | AUC0-t [1] [ng·h/mL] | DC50 (Bcl6 [2]) [nM] | DC50 (Bcl6 [3]) [nM] | IC50 [4] [nM] | AUC0-t ([5]; rats plasma) [ng·h/mL] | F [5] [%] | F ([5]; listed as compound 35)
1 | CC(=O)COc1cc2cc(Nc3nc(N4CCN(CC5CCN(c6ccc(C7CCC(=O)NC7=O)c(F)c6)CC5)CC4)ncc3Cl)ccc2n(C)c1=O (stereo not shown) | >1000 | < 100 |  |  |  |  | 
2 | [2H]C([2H])([2H])NC(=O)COc1cc2cc(Nc3nc(N4CCN(CC5CCN(c6ccc(C7CCC(=O)NC7=O)cc6)CC5)CC4)ncc3Cl)ccc2n(C([2H])([2H])[2H])c1=O (stereo not shown) |  |  | < 10 |  |  |  | 
3 | CC(=O)COc1cc2cc(Nc3nc(N4CCC(N5CCN(c6ccc(NC7CCC(=O)NC7=O)cc6F)CC5)C(F)(F)C4)ncc3Cl)ccc2n(C)c1=O (single isomer, unassigned) |  |  | < 10 |  |  |  | 
4 | CNC(=O)COc1cc2cc(Nc3nc(N4CCC(CN5CCN6c7ccc(C8CCC(=O)NC8=O)cc7CCC6C5)CC4)ncc3Cl)ccc2n(C)c1=O (single isomer, unassigned) | >1000 |  | < 10 | > 30000 | >1000 | >50 | greater than 90%

The structures given here were assigned with low confidence; some may be wrong.
